Laboratory results taken from the supplement of paper PMC10849652.
This is one part of the list. Residues, ends and D or L forms follow the SMILES beside them. *: point of attachment. Cbz = O=C(OCc1ccccc1)*

The chains behind the UniProt entries cited, without tags or fusion partners. Where a name states a change or a piece, a line headed by the entry shows the natural chain unless it says otherwise.
UniProt Q15528: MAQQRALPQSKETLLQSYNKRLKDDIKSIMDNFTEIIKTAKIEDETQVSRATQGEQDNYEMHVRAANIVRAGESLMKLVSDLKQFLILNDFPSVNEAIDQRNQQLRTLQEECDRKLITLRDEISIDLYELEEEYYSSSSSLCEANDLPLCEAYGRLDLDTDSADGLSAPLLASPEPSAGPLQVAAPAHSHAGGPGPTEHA
UniProt Q96GX5: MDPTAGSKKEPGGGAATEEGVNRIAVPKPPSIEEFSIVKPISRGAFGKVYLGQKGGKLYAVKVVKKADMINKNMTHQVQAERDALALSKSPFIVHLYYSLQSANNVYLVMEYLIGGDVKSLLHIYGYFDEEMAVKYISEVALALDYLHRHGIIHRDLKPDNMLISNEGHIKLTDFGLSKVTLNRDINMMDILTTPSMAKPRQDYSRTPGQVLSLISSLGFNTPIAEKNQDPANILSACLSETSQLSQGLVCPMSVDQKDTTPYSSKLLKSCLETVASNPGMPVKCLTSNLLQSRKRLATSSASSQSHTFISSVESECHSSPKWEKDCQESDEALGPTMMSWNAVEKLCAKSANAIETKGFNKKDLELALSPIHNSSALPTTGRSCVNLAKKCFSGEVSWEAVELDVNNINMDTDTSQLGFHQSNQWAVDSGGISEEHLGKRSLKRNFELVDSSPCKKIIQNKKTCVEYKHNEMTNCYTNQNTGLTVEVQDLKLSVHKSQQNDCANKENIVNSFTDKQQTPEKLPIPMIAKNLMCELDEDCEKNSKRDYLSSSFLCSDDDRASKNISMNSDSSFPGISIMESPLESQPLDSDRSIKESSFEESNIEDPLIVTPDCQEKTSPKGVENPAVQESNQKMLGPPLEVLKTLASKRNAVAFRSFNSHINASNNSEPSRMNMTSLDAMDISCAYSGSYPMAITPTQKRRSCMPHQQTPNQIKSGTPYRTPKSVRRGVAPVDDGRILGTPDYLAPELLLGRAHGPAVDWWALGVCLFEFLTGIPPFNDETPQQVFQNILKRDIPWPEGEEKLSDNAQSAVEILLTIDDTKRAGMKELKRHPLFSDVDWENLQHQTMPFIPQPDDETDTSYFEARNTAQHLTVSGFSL
UniProt P23368: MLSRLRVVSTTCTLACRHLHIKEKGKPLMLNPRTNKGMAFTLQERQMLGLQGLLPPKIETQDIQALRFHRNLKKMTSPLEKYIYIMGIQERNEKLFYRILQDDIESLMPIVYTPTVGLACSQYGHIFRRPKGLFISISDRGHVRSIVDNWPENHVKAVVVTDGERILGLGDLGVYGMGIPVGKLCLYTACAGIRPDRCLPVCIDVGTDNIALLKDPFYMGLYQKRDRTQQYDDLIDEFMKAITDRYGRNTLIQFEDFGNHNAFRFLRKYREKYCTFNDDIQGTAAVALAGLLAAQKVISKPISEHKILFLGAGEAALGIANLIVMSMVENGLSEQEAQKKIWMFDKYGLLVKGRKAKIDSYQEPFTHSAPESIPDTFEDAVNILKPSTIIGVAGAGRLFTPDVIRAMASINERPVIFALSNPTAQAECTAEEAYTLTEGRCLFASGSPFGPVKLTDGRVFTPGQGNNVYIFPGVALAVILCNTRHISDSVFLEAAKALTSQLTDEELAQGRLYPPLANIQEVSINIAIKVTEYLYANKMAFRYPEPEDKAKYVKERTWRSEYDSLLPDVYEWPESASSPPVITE
UniProt Q12866: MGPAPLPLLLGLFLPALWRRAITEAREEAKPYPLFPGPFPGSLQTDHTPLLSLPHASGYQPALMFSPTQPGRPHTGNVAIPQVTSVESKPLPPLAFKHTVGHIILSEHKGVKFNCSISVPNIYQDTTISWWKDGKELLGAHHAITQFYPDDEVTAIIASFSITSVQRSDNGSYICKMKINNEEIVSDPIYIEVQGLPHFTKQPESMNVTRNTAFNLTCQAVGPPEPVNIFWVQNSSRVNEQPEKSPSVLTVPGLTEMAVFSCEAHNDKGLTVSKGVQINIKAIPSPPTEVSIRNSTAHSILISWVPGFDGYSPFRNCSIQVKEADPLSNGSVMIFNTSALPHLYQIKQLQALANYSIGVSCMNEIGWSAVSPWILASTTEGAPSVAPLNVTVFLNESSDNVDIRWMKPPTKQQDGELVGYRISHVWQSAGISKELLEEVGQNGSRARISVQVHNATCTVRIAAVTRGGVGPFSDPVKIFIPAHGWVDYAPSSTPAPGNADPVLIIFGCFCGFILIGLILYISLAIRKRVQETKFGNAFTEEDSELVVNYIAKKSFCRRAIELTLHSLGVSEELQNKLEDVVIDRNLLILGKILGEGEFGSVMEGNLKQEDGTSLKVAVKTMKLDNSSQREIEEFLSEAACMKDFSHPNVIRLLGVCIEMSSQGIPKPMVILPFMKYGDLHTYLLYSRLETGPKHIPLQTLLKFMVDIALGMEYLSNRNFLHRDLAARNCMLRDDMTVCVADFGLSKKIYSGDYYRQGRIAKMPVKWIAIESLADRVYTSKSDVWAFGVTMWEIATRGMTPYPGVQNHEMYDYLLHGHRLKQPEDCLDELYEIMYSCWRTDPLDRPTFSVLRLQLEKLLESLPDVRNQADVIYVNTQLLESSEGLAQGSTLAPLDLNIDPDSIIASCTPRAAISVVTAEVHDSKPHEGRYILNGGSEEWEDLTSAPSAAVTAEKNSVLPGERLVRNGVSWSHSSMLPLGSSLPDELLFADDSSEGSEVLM
UniProt O95568: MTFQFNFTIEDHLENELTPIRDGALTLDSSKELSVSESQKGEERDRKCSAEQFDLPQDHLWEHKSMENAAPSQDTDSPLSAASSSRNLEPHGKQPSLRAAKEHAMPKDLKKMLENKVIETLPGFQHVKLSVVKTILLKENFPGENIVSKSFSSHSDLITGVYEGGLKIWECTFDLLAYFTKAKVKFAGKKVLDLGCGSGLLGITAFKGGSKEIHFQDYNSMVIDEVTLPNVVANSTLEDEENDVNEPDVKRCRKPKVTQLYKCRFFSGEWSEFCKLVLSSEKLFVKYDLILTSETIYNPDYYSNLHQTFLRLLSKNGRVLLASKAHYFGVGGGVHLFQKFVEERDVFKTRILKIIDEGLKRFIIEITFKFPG
UniProt Q9BUT9: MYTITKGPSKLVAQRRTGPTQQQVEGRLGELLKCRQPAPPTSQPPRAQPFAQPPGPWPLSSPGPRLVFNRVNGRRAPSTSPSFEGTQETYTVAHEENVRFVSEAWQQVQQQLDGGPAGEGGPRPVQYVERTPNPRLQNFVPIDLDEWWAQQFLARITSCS
UniProt O60291: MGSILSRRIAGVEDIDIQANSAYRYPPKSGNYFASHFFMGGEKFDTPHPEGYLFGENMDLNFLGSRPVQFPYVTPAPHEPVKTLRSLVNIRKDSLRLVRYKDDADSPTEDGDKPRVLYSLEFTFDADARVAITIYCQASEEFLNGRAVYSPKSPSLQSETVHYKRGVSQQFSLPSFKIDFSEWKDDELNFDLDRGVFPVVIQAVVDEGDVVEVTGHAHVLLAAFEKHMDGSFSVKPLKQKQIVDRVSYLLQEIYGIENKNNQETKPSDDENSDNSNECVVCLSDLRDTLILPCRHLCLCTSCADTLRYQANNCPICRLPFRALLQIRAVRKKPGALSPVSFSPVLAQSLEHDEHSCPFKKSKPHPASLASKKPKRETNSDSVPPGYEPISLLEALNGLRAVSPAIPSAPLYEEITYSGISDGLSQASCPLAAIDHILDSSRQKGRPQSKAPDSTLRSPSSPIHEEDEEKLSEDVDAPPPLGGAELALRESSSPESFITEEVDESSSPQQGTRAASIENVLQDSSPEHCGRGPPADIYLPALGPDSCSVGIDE
UniProt P10620: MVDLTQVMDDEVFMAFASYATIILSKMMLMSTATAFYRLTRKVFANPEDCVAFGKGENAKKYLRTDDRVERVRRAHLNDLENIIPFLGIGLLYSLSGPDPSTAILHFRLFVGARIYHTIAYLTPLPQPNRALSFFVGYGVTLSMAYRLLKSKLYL
UniProt Q9BTT4: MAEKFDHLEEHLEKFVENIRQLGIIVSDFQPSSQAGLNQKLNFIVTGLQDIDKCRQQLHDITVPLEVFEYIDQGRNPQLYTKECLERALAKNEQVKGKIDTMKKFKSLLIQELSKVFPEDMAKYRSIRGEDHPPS
UniProt Q9NR56: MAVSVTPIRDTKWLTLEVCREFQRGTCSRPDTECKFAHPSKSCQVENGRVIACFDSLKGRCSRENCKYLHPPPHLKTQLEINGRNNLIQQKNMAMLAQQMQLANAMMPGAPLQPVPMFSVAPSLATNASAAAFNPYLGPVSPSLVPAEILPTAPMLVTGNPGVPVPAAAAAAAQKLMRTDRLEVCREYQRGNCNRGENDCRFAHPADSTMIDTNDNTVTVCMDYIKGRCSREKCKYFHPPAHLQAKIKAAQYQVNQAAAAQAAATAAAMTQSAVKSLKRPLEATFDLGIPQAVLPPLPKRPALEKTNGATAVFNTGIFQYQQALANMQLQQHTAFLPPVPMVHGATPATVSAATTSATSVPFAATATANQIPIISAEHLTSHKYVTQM
UniProt Q8N6Q8: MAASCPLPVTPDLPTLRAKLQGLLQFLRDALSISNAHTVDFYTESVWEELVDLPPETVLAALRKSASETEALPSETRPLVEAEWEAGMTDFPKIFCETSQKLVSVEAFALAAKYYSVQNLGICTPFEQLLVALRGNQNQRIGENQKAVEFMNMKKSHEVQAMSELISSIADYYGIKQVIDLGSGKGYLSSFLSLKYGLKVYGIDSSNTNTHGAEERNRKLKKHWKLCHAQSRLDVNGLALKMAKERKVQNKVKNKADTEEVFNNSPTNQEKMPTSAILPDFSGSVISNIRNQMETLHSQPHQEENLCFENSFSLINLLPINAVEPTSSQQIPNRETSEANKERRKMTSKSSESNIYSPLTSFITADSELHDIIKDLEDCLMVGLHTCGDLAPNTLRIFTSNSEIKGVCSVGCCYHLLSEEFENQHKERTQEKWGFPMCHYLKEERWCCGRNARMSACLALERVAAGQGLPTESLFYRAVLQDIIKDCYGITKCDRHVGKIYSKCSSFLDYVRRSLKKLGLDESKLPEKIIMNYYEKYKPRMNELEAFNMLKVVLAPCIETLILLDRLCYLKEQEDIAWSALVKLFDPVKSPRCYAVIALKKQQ
UniProt Q8NHS3: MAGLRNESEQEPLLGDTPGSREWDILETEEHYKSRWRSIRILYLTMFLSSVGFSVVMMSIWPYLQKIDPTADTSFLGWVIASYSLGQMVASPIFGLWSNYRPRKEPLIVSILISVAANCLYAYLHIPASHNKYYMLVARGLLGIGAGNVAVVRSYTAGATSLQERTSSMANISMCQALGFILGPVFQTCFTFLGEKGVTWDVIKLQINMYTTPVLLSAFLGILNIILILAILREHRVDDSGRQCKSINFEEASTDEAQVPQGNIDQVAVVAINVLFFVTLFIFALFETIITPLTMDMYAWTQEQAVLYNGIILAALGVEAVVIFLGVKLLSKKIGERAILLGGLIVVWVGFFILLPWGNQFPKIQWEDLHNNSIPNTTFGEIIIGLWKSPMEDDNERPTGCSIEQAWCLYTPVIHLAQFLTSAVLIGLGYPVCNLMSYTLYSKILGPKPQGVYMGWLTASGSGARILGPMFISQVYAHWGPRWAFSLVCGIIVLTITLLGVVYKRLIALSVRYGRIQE
UniProt Q8NE86: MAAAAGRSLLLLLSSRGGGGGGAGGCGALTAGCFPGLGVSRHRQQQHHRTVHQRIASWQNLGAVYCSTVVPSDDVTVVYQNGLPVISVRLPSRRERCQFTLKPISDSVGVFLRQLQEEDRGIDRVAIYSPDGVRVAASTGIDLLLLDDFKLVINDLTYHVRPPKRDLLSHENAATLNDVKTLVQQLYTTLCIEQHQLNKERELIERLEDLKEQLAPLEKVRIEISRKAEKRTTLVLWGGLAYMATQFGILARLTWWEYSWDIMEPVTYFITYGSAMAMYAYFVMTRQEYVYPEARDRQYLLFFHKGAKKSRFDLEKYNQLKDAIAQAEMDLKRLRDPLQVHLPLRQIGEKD
UniProt O14880: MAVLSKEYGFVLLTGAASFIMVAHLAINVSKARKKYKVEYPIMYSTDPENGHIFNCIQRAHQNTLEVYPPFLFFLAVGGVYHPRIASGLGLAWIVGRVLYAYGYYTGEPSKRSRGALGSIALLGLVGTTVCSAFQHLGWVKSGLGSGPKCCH
UniProt Q9NS73: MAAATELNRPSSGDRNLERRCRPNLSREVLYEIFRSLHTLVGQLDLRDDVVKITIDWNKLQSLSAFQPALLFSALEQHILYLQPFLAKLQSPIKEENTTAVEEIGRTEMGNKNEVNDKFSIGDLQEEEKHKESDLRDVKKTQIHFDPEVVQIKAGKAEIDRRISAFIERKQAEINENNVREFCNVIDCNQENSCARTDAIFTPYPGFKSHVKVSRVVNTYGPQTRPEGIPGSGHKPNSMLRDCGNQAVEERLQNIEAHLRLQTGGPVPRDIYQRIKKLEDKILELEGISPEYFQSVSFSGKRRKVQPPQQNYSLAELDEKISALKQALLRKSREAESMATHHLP

Key:
Experiment in all cases: log2 fold change, soluble protein after heating vs DMSO (PISA); higher = thermal stabilisation; K562 cells, 10 uM, 30 min; active = over 0.2 and 3.5 SD of the protein, either way, in both replicates (recomputed)
IRAK-1-4 Inhibitor I = compound: C1COCCN1CCN2C3=CC=CC=C3N=C2NC(=O)C4=CC(=CC=C4)[N+](=O)[O-] [IRAK-1-4 Inhibitor I]
Procedure, shortened: (§1)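 Quantification of soluble protein used TMTpro 16plex LC-MS/MS, with channel sums equalised. Samples were the supernatant after 21,000xg for 90 min of pooled aliquots from K562 cells (2×10^6 cells/mL) treated with 10 μM compound for 30 min, heated for 3 min over 48°C-58°C, and extracted in PBS with 0.5% NP-40 at 4°C. Values, from duplicates, describe thermal stability against control samples on a log2 fold-change scale.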

ibrutinib = compound: C=CC(=O)N1CCC[C@@H](n2nc(-c3ccc(Oc4ccccc4)cc3)c3c(N)ncnc32)C1 [ibrutinib]
Procedure, shortened: as §1

[1] = compound: CC(=O)c1cnc2ccc(-c3cc(Cl)c(O)c(Cl)c3)nc2c1N[C@H]1CC[C@H](CN(C)C)CC1
Procedure, shortened: as §1

ralimetinib = compound: CC(C)(C)Cn1c(N)nc2ccc(-c3[nH]c(C(C)(C)C)nc3-c3ccc(F)cc3)nc21 [ralimetinib]
Procedure, shortened: as §1

[2] = compound: CC(C)(O)CC(=O)NCCn1ccc2ncnc(Nc3ccc(Oc4cccc(C(F)(F)F)c4)c(Cl)c3)c21
Procedure, shortened: as §1

[3] = compound: CC(C)C1=C2N=C(C=C(N2N=C1)NCC3=CC=CC=C3)NCCCCCCN
Procedure, shortened: as §1

[4] = compound: CC(C)C[C@@H](C=O)NC(=O)[C@H](CC(C)C)NC(=O)[C@H](CC(C)C)NC(=O)OCc1ccccc1
Procedure, shortened: as §1

pinometostat = compound: CC(C)N(C[C@H]1O[C@@H](n2cnc3c(N)ncnc32)[C@H](O)[C@@H]1O)[C@H]1C[C@@H](CCc2nc3cc(C(C)(C)C)ccc3[nH]2)C1 [pinometostat]
Procedure, shortened: as §1

[5] = compound: CC1=C(C2=C(C=C1)C(=O)C3=CC=CC=C3N2CCCN)C
Procedure, shortened: as §1

[6] = compound: CC1=C(C=C(C=C1)NC(=O)C2=CC(=CC=C2)C(C)(C)C#N)NC3=CC4=C(C=C3)N=CN(C4=O)C
Procedure, shortened: as §1

[7] = compound: CC1=C(C=C(C=C1)NC(=O)C2=CC(=CC=C2)N(C)C)NC(=O)C3=CC=C(C=C3)O
Procedure, shortened: as §1

[8] = compound: CC1=NC(=CC=C1)C2=C(N=C(N2)C(C)(C)C)C3=CC4=NC=CN=C4C=C3
Procedure, shortened: as §1

Nexturastat A = compound: CCCCN(Cc1ccc(C(=O)NO)cc1)C(=O)Nc1ccccc1 [Nexturastat A]
Procedure, shortened: as §1

vemurafenib = compound: CCCS(=O)(=O)Nc1ccc(F)c(C(=O)c2c[nH]c3ncc(-c4ccc(Cl)cc4)cc23)c1F [vemurafenib]
Procedure, shortened: as §1

[9] = compound: CCCc1cc(C)[nH]c(=O)c1CNC(=O)c1cc(-c2ccnc(N3CCN(C)CC3)c2)cc2c1cnn2C(C)C
Procedure, shortened: as §1

givinostat = compound: CCN(CC)Cc1ccc2cc(COC(=O)Nc3ccc(C(=O)NO)cc3)ccc2c1 [givinostat]
Procedure, shortened: as §1

barasertib = compound: CCN(CCCOc1ccc2c(Nc3cc(CC(=O)Nc4cccc(F)c4)[nH]n3)ncnc2c1)CCOP(=O)(O)O [barasertib]
Procedure, shortened: as §1

[10] = compound: CC1=CC=C(C=C1)SC2=C3C=C(SC3=CN=C2)C(=O)N
Procedure, shortened: as §1

[11] = compound: CCCS(=O)(=O)Nc1ccc(F)c(C(=O)c2c[nH]c3ncc(Cl)cc23)c1F
Procedure, shortened: as §1

[12] = compound: CC1=C(C(CC(=O)N1)C2=CC=C(C=C2)C(F)(F)F)C(=O)NC3=C(C=C4C(=C3)C=NN4)F
Procedure, shortened: as §1

Target	log2 fold change (IRAK-1-4 Inhibitor I)	log2 fold change (ibrutinib)	log2 fold change [1]	log2 fold change (ralimetinib)	log2 fold change [2]	log2 fold change [3]	log2 fold change [4]	log2 fold change (pinometostat)	log2 fold change [5]	log2 fold change [6]	log2 fold change [7]	log2 fold change [8]	log2 fold change (Nexturastat A)	log2 fold change (vemurafenib)	log2 fold change [9]	log2 fold change (givinostat)	log2 fold change (barasertib)	log2 fold change [10]	log2 fold change [11]	log2 fold change [12]
MED22 (UniProt Q15528)	inactive: 0.013	inactive: 0.076	inactive: -0.058	inactive: 0.064	inactive: 0.039	inactive: -0.016	inactive: 0.076	inactive: 0.012	inactive: 0.096	inactive: -0.023	inactive: 0.034	inactive: 0.015	inactive: -0.033	inactive: 0.043	inactive: 0.014	inactive: 0.117	inactive: 0.028	–	–	–
MASTL (UniProt Q96GX5)	inactive: -0.001	inactive: -0.008	inactive: -0.061	inactive: 0.001	active: -0.393	inactive: -0.028	inactive: 0.138	inactive: 0.07	–	inactive: 0.032	inactive: 0.187	inactive: -0.056	inactive: -0.149	inactive: -0.028	inactive: -0.032	inactive: -0.038	inactive: -0.013	–	–	–
ME2 (UniProt P23368)	inactive: 0.009	inactive: -0.039	inactive: 0.213	inactive: -0.003	inactive: 0.036	inactive: 0.152	inactive: 0.025	inactive: -0.021	inactive: -0.042	inactive: -0.01	inactive: -0.057	inactive: -0.017	inactive: 0.015	inactive: 0.011	inactive: 0.022	inactive: 0.027	inactive: 0.018	inactive: -0.044	inactive: 0.002	–
MERTK (UniProt Q12866)	inactive: 0.041	inactive: -0.027	inactive: 0.019	–	inactive: 0.036	inactive: -0.035	–	inactive: 0.017	inactive: -0.092	inactive: 0	–	inactive: 0.103	inactive: -0.092	inactive: -0.002	inactive: -0.035	inactive: 0.003	inactive: 0.133	inactive: 0.039	inactive: 0.085	inactive: -0.01
METTL18 (UniProt O95568)	inactive: 0.01	inactive: 0.019	inactive: 0.013	inactive: -0.036	inactive: 0.016	inactive: -0.009	inactive: -0.003	inactive: 0.023	inactive: 0.072	inactive: -0.026	inactive: 0.018	inactive: 0.028	inactive: -0.164	inactive: 0.014	inactive: -0.042	inactive: -0.245	inactive: 0.012	inactive: -0.032	inactive: 0.05	–
MED13 (UniProt Q9UHV7)	inactive: -0.011	inactive: 0.05	inactive: -0.256	inactive: -0.027	inactive: 0.059	–	inactive: 0.036	inactive: -0.043	inactive: -0.201	inactive: 0.019	inactive: 0.06	inactive: -0.11	inactive: 0.097	inactive: -0.244	inactive: -0.03	–	inactive: 0.032	inactive: -0.066	inactive: 0.065	inactive: 0.021
MCRIP2 (UniProt Q9BUT9)	inactive: 0.079	inactive: -0.084	–	inactive: -0.037	inactive: -0.11	inactive: -0.062	inactive: 0.069	inactive: 0.008	inactive: 0.538	inactive: -0.102	inactive: 0.014	inactive: -0.101	inactive: -0.026	–	–	inactive: -0.053	inactive: -0.054	inactive: 0.079	inactive: 0.028	–
MAST4 (UniProt O15021)	inactive: -0.025	inactive: -0.138	inactive: -0.089	active: -0.479	inactive: -0.091	inactive: -0.085	inactive: 0.002	inactive: -0.057	inactive: 0.268	inactive: 0.003	inactive: -0.246	inactive: 0.044	inactive: -0.08	inactive: 0.021	inactive: 0.072	inactive: -0.024	inactive: 0.028	inactive: 0.061	inactive: 0.055	–
MGRN1 isoform 2 (UniProt O60291)	inactive: 0.062	inactive: -0.003	inactive: 0.116	inactive: -0.015	–	inactive: -0.225	inactive: 0.114	inactive: 0.041	inactive: -0.098	–	inactive: -0.059	inactive: -0.02	–	–	–	inactive: 0.012	inactive: 0	inactive: 0.021	inactive: -0.307	–
MGST1 (UniProt P10620)	inactive: 0.002	inactive: 0.033	inactive: 0.064	inactive: -0.01	inactive: -0.001	inactive: -0.004	inactive: 0.011	inactive: -0.074	inactive: 0.054	inactive: 0.062	inactive: 0.044	inactive: 0.017	inactive: -0.07	inactive: 0.067	inactive: -0.093	inactive: -0.027	inactive: -0.035	inactive: -0.017	inactive: -0.007	–
MED10 (UniProt Q9BTT4)	inactive: -0.172	–	inactive: -0.028	inactive: -0.059	inactive: -0.144	inactive: 0.078	inactive: 0.005	inactive: -0.025	inactive: 0.202	inactive: -0.041	inactive: -0.053	inactive: 0.123	inactive: 0.043	inactive: 0.102	inactive: 0.063	inactive: -0.007	–	inactive: -0.033	inactive: -0.094	inactive: 0.036
MBNL1 isoform 5 (UniProt Q9NR56)	inactive: 0.015	inactive: 0.169	–	inactive: 0.105	inactive: -0.091	–	inactive: 0	inactive: -0.008	inactive: 0.116	inactive: -0.111	inactive: 0.009	inactive: 0.158	inactive: 0.001	–	inactive: -0.079	–	inactive: -0.088	–	–	inactive: -0.103
METTL25 (UniProt Q8N6Q8)	inactive: 0.143	inactive: -0.256	inactive: 0.066	–	inactive: 0.324	inactive: 0.066	–	inactive: -0.035	–	inactive: -0.162	–	inactive: -0.204	inactive: 0.086	inactive: 0.022	inactive: -0.089	inactive: 0.034	inactive: 0.078	inactive: -0.155	inactive: -0.248	inactive: 0.119
MELK (UniProt Q14680)	inactive: 0.021	inactive: 0.032	active: -0.84	–	inactive: -0.085	inactive: 0.092	–	inactive: 0.013	inactive: 0.011	inactive: -0.026	–	inactive: -0.015	inactive: 0.134	–	–	inactive: -0.023	inactive: 0.048	inactive: 0.111	inactive: 0.02	–
MFN2 (UniProt O95140)	inactive: -0.033	inactive: 0.03	inactive: -0.055	inactive: -0.014	inactive: 0.009	active: -0.479	inactive: 0.032	inactive: -0.017	inactive: 0.049	inactive: -0.021	inactive: -0.029	inactive: 0.009	inactive: -0.022	inactive: 0.019	inactive: -0.004	inactive: 0.01	inactive: 0.025	inactive: 0.018	inactive: 0.064	–
MFSD8 (UniProt Q8NHS3)	inactive: 0.062	inactive: 0.13	inactive: 0.036	inactive: 0.19	inactive: 0.067	active: -0.446	inactive: 0.08	inactive: 0.101	inactive: 0.124	–	inactive: -0.026	inactive: 0.011	inactive: -0.004	inactive: 0.045	inactive: -0.046	inactive: 0.034	inactive: -0.062	inactive: 0.113	inactive: 0.151	–
MCU (UniProt Q8NE86)	inactive: 0.06	inactive: -0.026	inactive: -0.036	inactive: -0.042	inactive: -0.108	inactive: -0.122	inactive: -0.026	inactive: 0.03	inactive: 0.017	inactive: 0	inactive: 0.051	inactive: 0.002	inactive: 0.002	inactive: 0.026	inactive: -0.075	inactive: 0.013	inactive: 0.014	inactive: 0.094	inactive: 0.022	–
MGST3 (UniProt O14880)	inactive: 0.115	inactive: 0.042	inactive: 0.036	inactive: 0.062	inactive: 0.041	inactive: 0.073	inactive: 0.006	inactive: -0.025	inactive: -0.014	inactive: -0.029	inactive: 0.005	inactive: -0.049	inactive: 0.015	inactive: -0.037	inactive: -0.057	inactive: 0.003	inactive: 0.003	inactive: 0	inactive: -0.011	–
MBIP (UniProt Q9NS73)	inactive: 0.084	inactive: 0.115	inactive: 0.145	inactive: -0.007	–	inactive: -0.001	inactive: -0.077	inactive: -0.022	inactive: 0.022	–	inactive: -0.04	inactive: -0.068	–	inactive: -0.034	inactive: 0.114	inactive: -0.008	inactive: 0.184	inactive: -0.027	inactive: 0.026	–

Quoted at random: two records from the list
Target	log2 fold change (IRAK-1-4 Inhibitor I)	log2 fold change (ibrutinib)	log2 fold change [1]	log2 fold change (ralimetinib)	log2 fold change [2]	log2 fold change [3]	log2 fold change [4]	log2 fold change (pinometostat)	log2 fold change [5]	log2 fold change [6]	log2 fold change [7]	log2 fold change [8]	log2 fold change (Nexturastat A)	log2 fold change (vemurafenib)	log2 fold change [9]	log2 fold change (givinostat)	log2 fold change (barasertib)	log2 fold change [10]	log2 fold change [11]	log2 fold change [12]
METTL18 (UniProt O95568)	inactive: 0.01	inactive: 0.019	inactive: 0.013	inactive: -0.036	inactive: 0.016	inactive: -0.009	inactive: -0.003	inactive: 0.023	inactive: 0.072	inactive: -0.026	inactive: 0.018	inactive: 0.028	inactive: -0.164	inactive: 0.014	inactive: -0.042	inactive: -0.245	inactive: 0.012	inactive: -0.032	inactive: 0.05	–
MCRIP2 (UniProt Q9BUT9)	inactive: 0.079	inactive: -0.084	–	inactive: -0.037	inactive: -0.11	inactive: -0.062	inactive: 0.069	inactive: 0.008	inactive: 0.538	inactive: -0.102	inactive: 0.014	inactive: -0.101	inactive: -0.026	–	–	inactive: -0.053	inactive: -0.054	inactive: 0.079	inactive: 0.028	–
